From patent US20210238278A1
Results are given in words; binding and its absence hold for the method and conditions named. Some entries that bind do so weakly or less than the wild type.

By UniProt entry, the sequences of proteins in these tests, tags left out. Residues count along the entry.
UniProt P23242, residues 2-382: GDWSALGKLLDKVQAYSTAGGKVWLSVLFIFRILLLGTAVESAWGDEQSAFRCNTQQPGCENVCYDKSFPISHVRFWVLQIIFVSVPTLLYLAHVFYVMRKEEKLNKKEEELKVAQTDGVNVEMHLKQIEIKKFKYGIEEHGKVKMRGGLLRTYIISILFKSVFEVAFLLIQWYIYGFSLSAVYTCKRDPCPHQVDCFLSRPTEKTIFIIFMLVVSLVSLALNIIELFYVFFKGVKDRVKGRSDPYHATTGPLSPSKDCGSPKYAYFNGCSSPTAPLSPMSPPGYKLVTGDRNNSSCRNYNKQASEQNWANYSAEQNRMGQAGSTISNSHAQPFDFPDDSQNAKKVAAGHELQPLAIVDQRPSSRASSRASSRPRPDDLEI

Target: connexin 43 (Cx43) of MLO-Y4 osteocytic cells (UniProt P23242)
Test: immunofluorescence on ethanol-fixed MLO-Y4 osteocyte cells, goat anti-mouse FITC secondary

binding: binds
B1: mouse monoclonal antibody (M2) (antibody, V domains shown)
VH: EVQLEQPGAELVKPGASVKLSCKASGYTFTSYYMYWVKQRPGQGLEWIGGINPSNGGTNFNEKFKNKATLTVDKSSSTAYMQLSSLTSEDSAVYYCTREGNPYYTMNYWGQGTSVTVSS
VL: DIVMTQTPSSLSVSAGEKVTMSCKSSQSLLNSGNQKTYLAWYQQKPGQPPKLLIYGASTRESGVPDRFTGSGSGTDFTLTISSVQAEDLAVYYCQNDHSYPFTFGSGTKLEIKR
